Results on one molecule are retold here after PMC11021183.

Amino acid sequences for entries named in this document (tags omitted). A change or cut given only in a name is not applied to a line headed by its entry.
UniProt Q2TAZ0: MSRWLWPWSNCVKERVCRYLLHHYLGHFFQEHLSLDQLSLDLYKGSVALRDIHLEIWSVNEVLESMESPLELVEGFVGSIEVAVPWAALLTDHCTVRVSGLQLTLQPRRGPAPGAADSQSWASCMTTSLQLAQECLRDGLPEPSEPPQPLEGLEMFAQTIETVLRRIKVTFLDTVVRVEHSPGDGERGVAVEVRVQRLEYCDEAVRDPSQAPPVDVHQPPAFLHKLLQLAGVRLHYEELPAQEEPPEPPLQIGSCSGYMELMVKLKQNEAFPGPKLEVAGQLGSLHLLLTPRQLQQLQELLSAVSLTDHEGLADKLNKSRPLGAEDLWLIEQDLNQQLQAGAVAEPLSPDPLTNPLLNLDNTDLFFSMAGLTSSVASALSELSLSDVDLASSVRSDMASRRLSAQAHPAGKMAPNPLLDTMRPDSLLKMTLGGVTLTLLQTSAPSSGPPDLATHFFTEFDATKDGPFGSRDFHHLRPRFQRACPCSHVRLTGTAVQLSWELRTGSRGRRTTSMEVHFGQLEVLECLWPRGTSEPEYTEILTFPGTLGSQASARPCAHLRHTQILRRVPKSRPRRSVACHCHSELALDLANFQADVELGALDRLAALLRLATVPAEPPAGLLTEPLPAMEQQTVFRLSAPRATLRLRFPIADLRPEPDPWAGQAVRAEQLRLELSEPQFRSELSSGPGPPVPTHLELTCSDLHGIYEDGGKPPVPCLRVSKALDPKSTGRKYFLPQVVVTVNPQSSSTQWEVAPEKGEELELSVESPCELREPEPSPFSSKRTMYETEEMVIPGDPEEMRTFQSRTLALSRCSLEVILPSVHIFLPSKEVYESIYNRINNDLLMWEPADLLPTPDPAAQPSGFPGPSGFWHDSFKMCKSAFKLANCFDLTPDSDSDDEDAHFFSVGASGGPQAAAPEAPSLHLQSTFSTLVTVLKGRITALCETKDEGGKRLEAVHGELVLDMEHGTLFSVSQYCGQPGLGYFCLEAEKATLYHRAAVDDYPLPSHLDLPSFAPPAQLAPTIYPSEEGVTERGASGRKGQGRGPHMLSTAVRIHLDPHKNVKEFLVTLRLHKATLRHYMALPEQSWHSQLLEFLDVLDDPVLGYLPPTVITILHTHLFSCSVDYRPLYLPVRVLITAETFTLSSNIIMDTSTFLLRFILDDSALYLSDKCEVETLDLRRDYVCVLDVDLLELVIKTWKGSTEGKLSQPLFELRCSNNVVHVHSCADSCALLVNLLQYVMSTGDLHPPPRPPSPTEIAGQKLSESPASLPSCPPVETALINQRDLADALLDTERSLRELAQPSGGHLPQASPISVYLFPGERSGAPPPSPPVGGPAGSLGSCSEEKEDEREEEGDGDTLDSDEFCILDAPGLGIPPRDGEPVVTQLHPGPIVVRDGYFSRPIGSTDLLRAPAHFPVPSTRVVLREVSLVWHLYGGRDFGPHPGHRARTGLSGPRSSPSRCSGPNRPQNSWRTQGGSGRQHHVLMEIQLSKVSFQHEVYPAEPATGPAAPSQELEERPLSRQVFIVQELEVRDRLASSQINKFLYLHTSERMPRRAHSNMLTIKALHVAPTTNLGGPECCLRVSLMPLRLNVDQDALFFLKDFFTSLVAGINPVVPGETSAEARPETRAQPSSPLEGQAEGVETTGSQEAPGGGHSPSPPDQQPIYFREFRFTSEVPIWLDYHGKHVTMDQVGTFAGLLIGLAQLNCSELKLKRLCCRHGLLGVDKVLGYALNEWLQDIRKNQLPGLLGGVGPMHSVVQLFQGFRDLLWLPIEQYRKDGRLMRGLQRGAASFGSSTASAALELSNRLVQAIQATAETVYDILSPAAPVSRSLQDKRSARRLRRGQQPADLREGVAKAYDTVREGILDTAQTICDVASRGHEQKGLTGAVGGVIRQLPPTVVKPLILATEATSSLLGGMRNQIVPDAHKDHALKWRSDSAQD

No constants are given. Whether binding was seen depends on the method and setting. In cells and extracts the contact can be indirect. For some assays here: Binding can be weak; no strength is given.

The target of experiment [1] is GFP-ATG2A-YFS (human) (UniProt Q2TAZ0). As to the kind of experiment: co-IP; HeLa cells transfected with GFP-tagged constructs; lysis in 20 mM Tris–HCl pH 7.4, 100 mM NaCl, 0.5 mM EDTA, 0.5% NP40; GFP-TRAP beads (ChromoTek); endogenous partners found by western blot. A general note: A western blot detects proteins with antibodies after separation by electrophoresis.
Experiment [2] concerns the target GFP-ATG2A-ΔMLD (human) (UniProt Q2TAZ0). The description is as above.

B1: TOMM40 (endogenous) (protein, UniProt O96008 1-361)
chain: MGNVLAASSPPAGPPPPPAPALVGLPPPPPSPPGFTLPPLGGSLGAGTSTSRSSERTPGAATASASGAAEDGACGCLPNPGTFEECHRKCKELFPIQMEGVKLTVNKGLSNHFQVNHTVALSTIGESNYHFGVTYVGTKQLSPTEAFPVLVGDMDNSGSLNAQVIHQLGPGLRSKMAIQTQQSKFVNWQVDGEYRGSDFTAAVTLGNPDVLVGSGILVAHYLQSITPCLALGGELVYHRRPGEEGTVMSLAGKYTLNNWLATVTLGQAGMHATYYHKASDQLQVGVEFEASTRMQDTSVSFGYQLDLPKANLLFKGSVDSNWIVGATLEKKLPPLPLTLALGAFLNHRKNKFQCGFGLTIG
Take B1: the binding entry in experiment [1] was “binds”; in experiment [2] it was “no binding”.
